Taken from: PubChem BioAssay AID1259259 (Sanger Institute, 2017)
Screen: 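Synthetic lethal kinase partners of anchor drugs in colorectal cancer cells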 (primary screen). Cells: SW1463 human colorectal cancer cells. Knock-down reagent: siRNA pool against human genes. Challenge: DMSO vehicle, or one anchor drug: BYL719 at 1 µM, cetuximab at 5 µg/ml, or trametinib at 10 nM. Measured: 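Viability relative to control pool 2 (non-targeting) averaged over replicates, robust z-score for knock-down with no drug, and for each anchor drug the mean synergy score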. Scale: robust z-score, knock-down alone: higher = more viable cells after knock-down; viability, knock-down alone: higher = more viable cells. Rule for the call: 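a robust z-score under -3 for knock-down with no drug marks the gene as essential, meaning viability loss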. Calls: active = essential: viability loss from knock-down alone; inactive = no change from knock-down alone.
Here is an unselected part of 794 deposited reagents. Of all reagents, 9 (1.1%) are marked active. 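Calls rest on knock-down alone, not drug synergy; viability values seem capped at 1.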 Further read-outs or replicates are left out here. No sequences are given here. Not given: the amount of reagent, the time to read-out.

Target gene,"robust z-score, knock-down alone","viability, knock-down alone (fraction of control)",Call
BRDT (bromodomain testis associated),1.13,1,inactive
CNOT1 (CCR4-NOT transcription complex subunit 1),-2.11,0.792,inactive
TTK (TTK protein kinase),0.776,0.978,inactive
NUP62 (nucleoporin 62),-0.109,0.921,inactive
FXN (frataxin),0.361,0.951,inactive
UCKL1 (uridine-cytidine kinase 1 like 1),-0.486,0.896,inactive
SIK2 (salt inducible kinase 2),-0.674,0.884,inactive
LTK (leukocyte receptor tyrosine kinase),1.13,1,inactive
DBF4 (DBF4-CDC7 kinase regulatory subunit),0.11,0.935,inactive
AKT2 (AKT serine/threonine kinase 2),-0.0571,0.924,inactive
ERN1 (endoplasmic reticulum to nucleus signaling 1),-0.0497,0.924,inactive
PI4K2B (phosphatidylinositol 4-kinase type 2 beta),-1.45,0.835,inactive
STK10 (serine/threonine kinase 10),-1.12,0.856,inactive
CHD9 (chromodomain helicase DNA binding protein 9),0.0631,0.932,inactive
POMK (protein O-mannose kinase),0.888,0.985,inactive
CDK6 (cyclin dependent kinase 6),-0.938,0.867,inactive
BUB1 (BUB1 mitotic checkpoint serine/threonine kinase),-0.523,0.894,inactive
MAPK6 (mitogen-activated protein kinase 6),-0.419,0.901,inactive
PLK1 (polo like kinase 1),-4.38,0.646,active
NEK11 (NIMA related kinase 11),-0.829,0.874,inactive
MAST3 (microtubule associated serine/threonine kinase 3),-0.48,0.897,inactive

Next part, starting with the last 2 of the part before.
Target gene,"robust z-score, knock-down alone","viability, knock-down alone (fraction of control)",Call
NEK11 (NIMA related kinase 11),-0.829,0.874,inactive
MAST3 (microtubule associated serine/threonine kinase 3),-0.48,0.897,inactive
NME3 (NME/NM23 nucleoside diphosphate kinase 3),0.108,0.935,inactive
DAPK1 (death associated protein kinase 1),-1.63,0.823,inactive
PANK2 (pantothenate kinase 2),-0.356,0.905,inactive
RIPK2 (receptor interacting serine/threonine kinase 2),0.011,0.928,inactive
NADK (NAD kinase),-0.849,0.873,inactive
PRKG1 (protein kinase cGMP-dependent 1),1.13,1,inactive
TCF7L2 (transcription factor 7 like 2),0.639,0.969,inactive
"YES1 (YES proto-oncogene 1, Src family tyrosine kinase)",0.36,0.951,inactive
MAP3K12 (mitogen-activated protein kinase kinase kinase 12),0.0299,0.93,inactive
PHKG1 (phosphorylase kinase catalytic subunit gamma 1),0.129,0.936,inactive
IRAK1 (interleukin 1 receptor associated kinase 1),-0.708,0.882,inactive
MAP3K8 (mitogen-activated protein kinase kinase kinase 8),-0.783,0.877,inactive
IP6K2 (inositol hexakisphosphate kinase 2),0.112,0.935,inactive
